Assay results from PubChem BioAssay AID1487 (National Center for Advancing Translational Sciences (NCATS), 2009).
The list shows a part of the results. These are further read-outs of the screen, such as a control signal, another cell line or another target. No call is given for them. Most of these compounds were active or inconclusive in the main read-out, so they are no random draw. Potencies come from curve fits of mixed quality, noted in brackets.

Experiment: qHTS Assay for Modulators of Lamin A Splicing
Settings: HeLa LMNA splicing GFP/RFP minigene ratio, 48 h
How it was run: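 Read-out is the ratio of GFP to DsRed2 object intensity, acquired by 488 nm laser-scanning cytometry on HeLa lamin A-EGFP minigene reporter cells. Compound incubation 48 hrs at 37 °C in Opti-MEM with 2% FBS; DMSO 0.5% final.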

[1] = measured here: RFP viability control channel
[2] = measured here: GFP splicing reporter channel

For O=C(CSc1nnc(-c2cnccn2)n1Cc1ccco1)c1ccc(Cl)cc1, the AC50 [1] was 12.6 µM [rising, single point].
For CCN(CC)CCCNC(=O)c1cc2nc3c(c(C(F)(F)F)n2n1)CCc1ccccc1-3, the AC50 [2] was 0.447 µM [rising, partial curve, poor fit].
In the case of OC[C@H](S)CS, the AC50 [2] is reported as 35.5 µM [falling, single point] and the AC50 [1] is reported as 35.5 µM [falling, single point].
In the case of CS(=O)(=O)N(CC(=O)NCCC1=CCCCC1)c1cccc([N+](=O)[O-])c1, the AC50 [2] is reported as 15.8 µM [falling, single point] and the AC50 [1] is reported as 0.0501 µM [falling, full curve, poor fit].
In the case of CN(Cc1nc(-c2cccc(Cl)c2)no1)C1CCOCC1, the AC50 [1] is reported as 35.5 µM [falling, single point].
In the case of S=c1[nH]nc(CSCCOc2ccc(Cl)cc2Cl)o1, the AC50 [2] is reported as 14.1 µM [falling, single point] and the AC50 [1] is reported as 5.62 µM [falling, partial curve, poor fit].
In the case of C[Si](C)(C)O[Si](C)(C)C, the AC50 [2] is reported as 0.00355 µM [falling, full curve, poor fit].
With CCN(CCNC(=O)CN1CCN(Cc2ccc(Cl)cc2)C1=O)c1ccccc1 the AC50 [1] was 31.6 µM [rising, single point].
For CC(=O)Nc1ccc(NC(=O)c2c(C)nc3ccccn23)cc1, the AC50 [2] was 0.398 µM [falling, partial curve] and the AC50 [1] was 0.355 µM [falling, partial curve].
In the case of CCOc1ccc(CNC(=O)c2cc3oc4ccccc4c3n2C)cc1, the AC50 [1] is reported as 3.55 µM [rising, full curve].
In the case of Cc1ccc(OCc2ccc(C(=O)NCc3cccnc3)cc2)cc1C, the AC50 [1] is reported as 3.55 µM [falling, partial curve].
For O=C(/C=C/c1ccc(OCCCF)cc1)Nc1ccnc(-c2cccnc2)n1, the AC50 [1] was 35.5 µM [falling, partial curve, poor fit].
In the case of CCCC(=O)C1=C(N2CCCCC2)CC(C)(C)C(C(=O)OC)C1=O (stereo unspecified), the AC50 [1] is reported as 0.562 µM [falling, full curve, poor fit].
For COc1cc(C2NC(=S)NC(C)=C2C(=O)Nc2ccc(C)cc2)ccc1O (stereo unspecified), the AC50 [2] was 0.0126 µM [falling, full curve, poor fit].
For COc1cc(/C=C/c2cc(C(F)(F)F)[nH]c(=O)n2)cc(OC)c1OC, the AC50 [2] was 28.2 µM [falling, partial curve] and the AC50 [1] was 35.5 µM [falling, partial curve].
For CCOC(=O)N1CCC(NC(=O)c2cc(S(=O)(=O)NCCc3ccccc3)ccc2F)CC1, the AC50 [2] was 12.6 µM [rising, single point] and the AC50 [1] was 28.2 µM [rising, single point].
In the case of COC(=O)c1nnn(-c2nonc2N)c1CN1CCc2ccccc21, the AC50 [1] is reported as 11.2 µM [rising, partial curve, poor fit].
With O=C(Nc1ccccc1)Nc1nnc(Cc2ccc([N+](=O)[O-])cc2)s1 the AC50 [2] was 0.355 µM [rising, full curve].
For CCOc1cccc2cc(-c3nnc(Nc4ccc(F)c(Cl)c4)s3)c(=O)oc12, the AC50 [2] was 22.4 µM [rising, single point].
In the case of CCOc1cc(NC(=S)NCCCN2CCOCC2)c(OCC)cc1NC(=O)c1ccccc1C, the AC50 [1] is reported as 0.794 µM [rising, full curve, poor fit].
In the case of COC(=O)c1ccccc1NC(=O)Nc1ccc(Br)cn1, the AC50 [2] is reported as 0.708 µM [falling, full curve, poor fit] and the AC50 [1] is reported as 0.794 µM [falling, full curve].
For Cc1[nH]c2ccccc2c1C(=O)CSc1nc2ncc(Cl)cc2[nH]1, the AC50 [2] was 10 µM [falling, partial curve] and the AC50 [1] was 7.08 µM [falling, full curve].
In the case of CCOc1cc(/C=C/c2ccc3cccc([N+](=O)[O-])c3n2)cc(Cl)c1O, the AC50 [1] is reported as 2 µM [rising, full curve].
With O=C(Nc1ccccc1C(=O)OCc1nnc(-c2ccccc2)o1)c1ccco1 the AC50 [2] was 11.2 µM [rising, partial curve, poor fit] and the AC50 [1] was 17.8 µM [rising, partial curve, poor fit].
For CCCCCCC(=O)NC(Nc1ccc(S(N)(=O)=O)cc1)C(Cl)(Cl)Cl (stereo unspecified), the AC50 [2] was 11.2 µM [rising, partial curve] and the AC50 [1] was 22.4 µM [rising, single point].
In the case of O=C(NCc1ccco1)/C(=C\c1cccs1)NC(=O)c1ccccc1, the AC50 [2] is reported as 0.282 µM [falling, full curve, poor fit] and the AC50 [1] is reported as 0.158 µM [falling, full curve, poor fit].
In the case of O=C(Nc1ccccc1)OCc1ccccn1, the AC50 [2] is reported as 0.562 µM [falling, full curve, poor fit] and the AC50 [1] is reported as 0.0562 µM [falling, full curve, poor fit].
In the case of Cc1cccc(C)c1NC(=O)CN1C(=O)S/C(=C\c2cccn2C)C1=O, the AC50 [1] is reported as 2.82 µM [falling, full curve, poor fit].
With CSc1ccccc1NC(=O)Cn1ccsc1=N the AC50 [2] was 2.51 µM [falling, single point].
In the case of Cc1cc(C)n(-c2nnc3n2N=C(c2c[nH]c4ccccc24)CS3)n1, the AC50 [2] is reported as 3.55 µM [rising, single point] and the AC50 [1] is reported as 4.47 µM [rising, partial curve].
For COc1ccc(OC)c(-c2cc(C(=O)Nc3cc(C)n(Cc4ccc(Cl)cc4)n3)no2)c1, the AC50 [2] was 4.47 µM [rising, partial curve] and the AC50 [1] was 3.16 µM [rising, single point].
In the case of CN(C)CCOC(C)(c1ccccc1)c1ccccn1 (stereo unspecified), the AC50 [2] is reported as 5.62 µM [rising, single point].
In the case of CCOc1ccc(/C=N/NC(=O)Cc2csc(Nc3cccc(C(F)(F)F)c3)n2)c(OCC)c1, the AC50 [2] is reported as 35.5 µM [falling, single point] and the AC50 [1] is reported as 35.5 µM [falling, single point].
In the case of C=CCNC(N)=S, the AC50 [2] is reported as 0.0282 µM [rising, partial curve, poor fit].
With COC(=O)C1CCN(CC(=O)Nc2sc3c(c2C#N)CCC3)CC1 the AC50 [2] was 28.2 µM [falling, single point] and the AC50 [1] was 31.6 µM [falling, partial curve].
